No constants are given. Whether binding was seen depends on the method and setting. Some binding calls cover weakened binding; strength is not graded here. Sequences can lack the tags named with a protein.

By UniProt entry, the sequences of proteins in these tests, tags left out.
UniProt Q9CAJ0: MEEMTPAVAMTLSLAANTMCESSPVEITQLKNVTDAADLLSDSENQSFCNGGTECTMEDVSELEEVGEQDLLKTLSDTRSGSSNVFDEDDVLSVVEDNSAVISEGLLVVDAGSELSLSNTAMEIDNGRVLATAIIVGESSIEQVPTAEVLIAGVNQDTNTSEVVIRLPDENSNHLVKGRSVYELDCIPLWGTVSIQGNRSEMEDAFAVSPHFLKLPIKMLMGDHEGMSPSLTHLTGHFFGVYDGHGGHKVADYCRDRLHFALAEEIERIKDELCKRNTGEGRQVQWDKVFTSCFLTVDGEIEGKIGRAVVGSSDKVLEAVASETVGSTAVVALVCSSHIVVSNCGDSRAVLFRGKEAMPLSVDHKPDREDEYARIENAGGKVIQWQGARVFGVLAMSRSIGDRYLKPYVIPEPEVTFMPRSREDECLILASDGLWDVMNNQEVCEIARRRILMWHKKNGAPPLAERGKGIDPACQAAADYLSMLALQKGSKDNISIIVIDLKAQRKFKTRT

The target in this assay is HAB1-GAL4 AD (Gal4 activation domain (AD)-PP2C fusion protein encoded by pAD-HAB1) (UniProt Q9CAJ0). Briefly: yeast two-hybrid X-gal staining (Y190 pAD-HAB1) on increasing fenhexamid.

B1: PYL2 K64R, Y124H, M164I, V67I, V114I mutant, GAL4 BD fusion (pBD-PYL2) (receptor)
chain: MSSSPAVKGLTDEEQKTLEPVIKTYHQFEPDPTTCTSLITQRIHAPASVVWPLIRRFDNPERYRHFIKRCRLISGDGDVGSVREVTVISGLPASTSTERLEFVDDDHRVLSFRIVGGEHRLKNHKSVTSVNEFLNQDSGKVYTVVLESYTVDIPEGNTEEDTKIFVDTVVKLNLQKLGVAATSAPMHDDE
For the molecule B1, the binding result is “binds”.

For the origin of these results see patent US20110271408A1.
